PubChem BioAssay AID1259308 – NCATS – 2017

Purpose: 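Candidate targets for better recombinant protein yield in mammalian cells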 (primary screen)
Cell system: human HEK293 embryonic kidney cells stably expressing firefly luciferase (HEK-CMV-Luc2-Hygro)
Reagents: single siRNA against human genes, 0.8 pmol siRNA per well
Timing: 72 h
Measured: 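Luciferase light (ONE-Glo) measured on one replicate plate set and viability (CellTiter-Glo) on the other, scaled to a negative control siRNA, with robust z-scores and luciferase per cell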
Scale: total luciferase, z-score: higher = more reporter protein produced
Rule for the call: 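Active when the median/MAD z-score for overall luciferase is greater than 3; a gene was taken forward for validation with new siRNAs if at least two of its three siRNAs passed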
Meaning of the calls: active = raised luciferase; inactive = no rise
Shown is a random part of about 59,000 reagents tested. In the full data, about 1,510 (2.6%) were called active. 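Calls use total luciferase alone and ignore viability, so some active siRNAs may act by altering cell number.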 Not all columns of the deposit are shown.

The opening 2 records, to show the layout:
target gene | PubChem SID | total luciferase, z-score | activity call
CITED1 (GeneID 4435) | SID160731245 | 0.141 | inactive
CITED1 (GeneID 4435) | SID160731246 | -0.571 | inactive

Results, from the start:
target gene | PubChem SID | total luciferase, z-score | activity call
CITED1 (GeneID 4435) | SID160731245 | 0.141 | inactive
CITED1 (GeneID 4435) | SID160731246 | -0.571 | inactive
CITED1 (GeneID 4435) | SID160777455 | 2.16 | inactive
TIMCC (GeneID 84908) | SID160752908 | -0.587 | inactive
TIMCC (GeneID 84908) | SID160752909 | -2.71 | inactive
TIMCC (GeneID 84908) | SID160752911 | 0.343 | inactive
NBEA (GeneID 26960) | SID160738197 | 0.399 | inactive
NBEA (GeneID 26960) | SID160738198 | -0.752 | inactive
NBEA (GeneID 26960) | SID160738199 | -0.107 | inactive
HHATL (GeneID 57467) | SID160746029 | -0.202 | inactive
HHATL (GeneID 57467) | SID160746030 | 0.849 | inactive
HHATL (GeneID 57467) | SID160746031 | 1.09 | inactive
SPEM1 (GeneID 374768) | SID160765305 | 0.0393 | inactive
SPEM1 (GeneID 374768) | SID160765306 | 0.228 | inactive
SPEM1 (GeneID 374768) | SID160765307 | 1.11 | inactive
ERG (GeneID 2078) | SID160761758 | 3.02 | active
ERG (GeneID 2078) | SID160761769 | -0.565 | inactive
ERG (GeneID 2078) | SID160761778 | -0.663 | inactive
SACM1L (GeneID 22908) | SID160733237 | -0.44 | inactive
SACM1L (GeneID 22908) | SID160733247 | 0.776 | inactive
SACM1L (GeneID 22908) | SID160733258 | -0.725 | inactive
GALNT17 (GeneID 64409) | SID160747736 | -0.383 | inactive
GALNT17 (GeneID 64409) | SID160747737 | -1.59 | inactive
GALNT17 (GeneID 64409) | SID160747738 | 0.0568 | inactive
